Data reported in patent publication US20260174786A1, “A NITROGEN-CONTAINING SPIROCYCLIC COMPOUND, PHARMACEUTICAL COMPOSITION AND USE THEREOF” (Prime Gene Therapeutics Co., Ltd., priority 2022, published 2026).
For at least one compound, name, drawing or mass did not settle the structure.

Assay: Stability assessment of compounds at room temperature under 92.5% humidity (LC-MS)
Type: physicochemical
Settings: 92.5% humidity (open), after 10 days
Experimental: Taking the compound of Example 21 and KM-001-E1 in WO2021154966A1 as examples, the stability thereof was compared:
Compound of Example 21 and KM-001-E1 were accurately weighed and placed in penicillin bottles, and placed at room temperature under 92.5% humidity (open) conditions for 5-10 days to investigate the stability of the compounds.
• instrument: Thermo U3000-ISQEC • column: Xtimate UHPLC C18 1.8 μm 4.6*50 mm • Column temperature: 35° C. • wavelength: 210 nm, 254 nm • mobile phase A: 0.05% formic acid aqueous solution; mobile phase B: 0.05% formic acid acetonitrile; gradient: 30% B 0-1.2 min, 95% B 1.2-3.3 min, 30% B 3.3-4.5 min;
Analyzing the degradation impurities of each compound under 92.5% humidity conditions using LC-MS: The main impurities in Example 21 had m/z 427.17, with a retention time of 2.55 minutes. After being left for 10 days, the peak area proportion was only 0.3%; The main impurities in KM-001-E1 has m/z=431.14 and m/z=415.16, with retention times of 2.31 minutes and 2.64 minutes, respectively. […] Based on LC-MS and NMR data analysis, it can be inferred that the main impurities produced in Example 21 are ketones, while the main impurities produced in KM-001-E1 are aldehydes and carboxylic acids.

O=C(c1ccc(F)cn1)N1CC[C@@]2(C[C@@H](O)c3cc(-c4ccccc4C4CC4)ccc32)C1 [Example 21, ((1S,3R)-5-(2-cyclopropylphenyl)-3-hydroxy-2,3-dihydrospiro[indene-1,3′-pyrrolidine]-1′-yl)(5-fluoropyridin-2-yl)ketone]
peak area proportion of main impurity (m/z 427.17): 0.3%
